Some entries share one result that the patent states for a list of compounds. At least one compound was matched to its structure with a doubt left.
Experiment: Paired comparison testing (2-AFC) of sweet intensity versus 300 ppm Rebaudioside A by trained panelists
Assay type: in vivo
Settings: concentration not given
Procedure: Paired comparison tests (2-Alternative Forced Choice difference tests, i.e., 2-AFC) were used to determine sweet intensity equivalence between samples prepared with Rebaudioside A and the test sweet compound. Trained external panelists were used for the taste tests.
2-AFC tests, compound solutions were tested against 300 ppm Rebaudioside A to determine how they matched in sweet intensity. Panelists tasted both samples and indicated which sample was sweeter in each pair. Panelists rinsed their mouths with water prior to starting any test. Samples were presented to panelists in randomized, counterbalanced pairs and were labeled with 3-digit blinding codes. Panelists rinsed with water between samples as well as between pairs. There was a 90 second delay to clear the mouth of any tastes after each pair evaluation. Three replicates of each test were performed.
The 2-AFC data was analyzed to determine significant differences between 300 ppm Rebaudioside A and compound solutions using a probability table for a two-tailed test (alpha=0.05).
The paired comparison testing was performed using a 0.25 mL sample size, and all samples were made with Low Sodium Buffer (LSB) pH ˜7.1 and contain 0% ethanol.

Row | Compound | Sweetness compared with Rebaudioside A (2-AFC)
1 | C[C@H](CC[C@@H](O[C@@H]1O[C@H](CO[C@H]2O[C@H](CO)[C@@H](O)[C@H](O)[C@H]2O)[C@@H](O[C@H]2O[C@H](CO)[C@@H](O)[C@H](O)[C@H]2O)[C@H](O)[C@H]1O[C@@H]1O[C@H](CO)[C@@H](O)[C@H](O)[C@H]1O)C(C)(C)O)C1CC[C@@]2(C)C3CC=C4C(CC[C@H](O[C@@H]5O[C@H](CO)[C@@H](O)[C@H](O)[C@H]5O)C4(C)C)[C@]3(C)[C@H](O)C[C@]12C (stereo partly shown) [Compound 7] | at least as sweet as Rebaudioside A
2 | C[C@H](CC[C@@H](O[C@@H]1O[C@H](CO)[C@@H](O)[C@H](O)[C@H]1O[C@@H]1O[C@H](CO)[C@@H](O[C@@H]2O[C@H](CO)[C@@H](O)[C@H](O)[C@H]2O)[C@H](O)[C@H]1O)C(C)(C)O)C1CC[C@@]2(C)C3CC=C4C(CC[C@H](O[C@@H]5O[C@H](CO)[C@@H](O)[C@H](O)[C@H]5O)C4(C)C)[C@]3(C)[C@H](O)C[C@]12C (stereo partly shown) [Compound 13] | at least as sweet as Rebaudioside A
3 | C[C@H](CC[C@@H](O[C@@H]1O[C@H](CO)[C@@H](O[C@H]2O[C@H](CO)[C@@H](O)[C@H](O)[C@H]2O)[C@H](O)[C@H]1O[C@@H]1O[C@H](CO)[C@@H](O)[C@H](O)[C@H]1O)C(C)(C)O)C1CC[C@@]2(C)C3CC=C4C(CC[C@H](O[C@@H]5O[C@H](CO)[C@@H](O)[C@H](O)[C@H]5O)C4(C)C)[C@]3(C)[C@H](O)C[C@]12C (stereo partly shown) [Compound 10] | at least as sweet as Rebaudioside A
4 | C[C@H](CC[C@@H](O[C@@H]1O[C@H](CO)[C@@H](O)[C@H](O)[C@H]1O[C@@H]1O[C@H](CO)[C@@H](O)[C@H](O)[C@H]1O)C(C)(C)O)C1CC[C@@]2(C)C3CC=C4C(CC[C@H](O[C@@H]5O[C@H](CO)[C@@H](O[C@H]6O[C@H](CO)[C@@H](O)[C@H](O)[C@H]6O)[C@H](O)[C@H]5O)C4(C)C)[C@]3(C)[C@H](O)C[C@]12C (stereo partly shown) [Compound 6] | at least as sweet as Rebaudioside A
5 | C[C@H](CC[C@@H](O[C@@H]1O[C@H](CO)[C@@H](O[C@@H]2O[C@H](CO)[C@@H](O)[C@H](O)[C@H]2O)[C@H](O)[C@H]1O[C@@H]1O[C@H](CO)[C@@H](O)[C@H](O)[C@H]1O)C(C)(C)O)C1CC[C@@]2(C)C3CC=C4C(CC[C@H](O[C@@H]5O[C@H](CO)[C@@H](O)[C@H](O)[C@H]5O)C4(C)C)[C@]3(C)[C@H](O)C[C@]12C (stereo partly shown) [Compound 14] | at least as sweet as Rebaudioside A
6 | C[C@H](CC[C@@H](O[C@@H]1O[C@H](COC2O[C@H](CO)[C@@H](O)[C@H](O)[C@H]2O)[C@@H](O)[C@H](O)[C@H]1O[C@@H]1O[C@H](CO)[C@@H](O[C@H]2O[C@H](CO)[C@@H](O)[C@H](O)[C@H]2O)[C@H](O)[C@H]1O)C(C)(C)O)C1CC[C@@]2(C)C3CC=C4C(CC[C@H](O[C@@H]5O[C@H](CO)[C@@H](O)[C@H](O)[C@H]5O)C4(C)C)[C@]3(C)[C@H](O)C[C@]12C (stereo partly shown) [Compound 8] | at least as sweet as Rebaudioside A
7 | C[C@H](CC[C@@H](O[C@@H]1O[C@H](CO[C@H]2O[C@H](CO)[C@@H](O)[C@H](O)[C@H]2O)[C@@H](O)[C@H](O)[C@H]1O[C@@H]1O[C@H](CO)[C@@H](O)[C@H](O)[C@H]1O)C(C)(C)O)C1CC[C@@]2(C)C3CC=C4C(CC[C@H](O[C@@H]5O[C@H](CO[C@H]6O[C@H](CO)[C@@H](O)[C@H](O)[C@H]6O)[C@@H](O)[C@H](O)[C@H]5O)C4(C)C)[C@]3(C)[C@H](O)C[C@]12C (stereo partly shown) [Compound 4] | at least as sweet as Rebaudioside A
8 | C[C@H](CC[C@@H](O[C@@H]1O[C@H](CO[C@H]2O[C@H](CO)[C@@H](O)[C@H](O)[C@H]2O)[C@@H](O)[C@H](O)[C@H]1O[C@@H]1O[C@H](CO)[C@@H](O)[C@H](O)[C@H]1O)C(C)(C)O)C1CC[C@@]2(C)C3CC=C4C(CC[C@H](O[C@@H]5O[C@H](CO[C@@H]6O[C@H](CO)[C@@H](O)[C@H](O)[C@H]6O)[C@@H](O)[C@H](O)[C@H]5O)C4(C)C)[C@]3(C)[C@H](O)C[C@]12C (stereo partly shown) [Compound 23] | at least as sweet as Rebaudioside A
9 | C[C@H](CC[C@@H](O[C@@H]1O[C@H](CO)[C@@H](O)[C@H](O)[C@H]1O[C@@H]1O[C@H](CO)[C@@H](O[C@H]2O[C@H](CO)[C@@H](O)[C@H](O)[C@H]2O)[C@H](O)[C@H]1O)C(C)(C)O)C1CC[C@@]2(C)C3CC=C4C(CC[C@H](O[C@@H]5O[C@H](CO)[C@@H](O)[C@H](O)[C@H]5O)C4(C)C)[C@]3(C)[C@H](O)C[C@]12C (stereo partly shown) [Compound 9] | at least as sweet as Rebaudioside A
10 | C[C@H](CC[C@@H](O[C@@H]1O[C@H](CO[C@@H]2O[C@H](CO)[C@@H](O)[C@H](O)[C@H]2O)[C@@H](O)[C@H](O)[C@H]1O[C@@H]1O[C@H](CO)[C@@H](O)[C@H](O)[C@H]1O)C(C)(C)O)C1CC[C@@]2(C)C3CC=C4C(CC[C@H](O[C@@H]5O[C@H](CO[C@H]6O[C@H](CO[C@H]7O[C@@H](CO)[C@H](O)[C@@H](O)[C@@H]7O)[C@@H](O)[C@H](O)[C@H]6O)[C@@H](O)[C@H](O)[C@H]5O)C4(C)C)[C@]3(C)[C@H](O)C[C@]12C (stereo partly shown) [Compound 2] | at least as sweet as Rebaudioside A
11 | C[C@H](CC[C@@H](O[C@@H]1O[C@H](CO)[C@@H](O)[C@H](O)[C@H]1O[C@@H]1O[C@H](CO)[C@@H](O)[C@H](O)[C@H]1O)C(C)(C)O)C1CC[C@@]2(C)C3CC=C4C(CC[C@H](O[C@@H]5O[C@H](CO)[C@@H](O)[C@H](O[C@@H]6O[C@H](CO)[C@@H](O)[C@H](O)[C@H]6O)[C@H]5O)C4(C)C)[C@]3(C)[C@H](O)C[C@]12C (stereo partly shown) [Compound 19] | at least as sweet as Rebaudioside A
12 | C[C@H](CC[C@@H](O[C@@H]1O[C@H](CO[C@H]2O[C@H](CO)[C@@H](O)[C@H](O)[C@H]2O)[C@@H](O)[C@H](O)[C@H]1O[C@@H]1O[C@H](CO)[C@@H](O)[C@H](O)[C@H]1O)C(C)(C)O)C1CC[C@@]2(C)C3CC=C4C(CC[C@H](O[C@@H]5O[C@H](CO)[C@@H](O[C@H]6O[C@H](CO)[C@@H](O)[C@H](O)[C@H]6O)[C@H](O)[C@H]5O)C4(C)C)[C@]3(C)[C@H](O)C[C@]12C (stereo partly shown) [Compound 5] | at least as sweet as Rebaudioside A
13 | C[C@H](CC[C@@H](O[C@@H]1O[C@H](CO)[C@@H](O)[C@H](O)[C@H]1O[C@@H]1O[C@H](CO)[C@@H](O)[C@H](O[C@@H]2O[C@H](CO)[C@@H](O)[C@H](O)[C@H]2O)[C@H]1O)C(C)(C)O)C1CC[C@@]2(C)C3CC=C4C(CC[C@H](O[C@@H]5O[C@H](CO)[C@@H](O)[C@H](O)[C@H]5O)C4(C)C)[C@]3(C)[C@H](O)C[C@]12C (stereo partly shown) [Compound 20] | at least as sweet as Rebaudioside A
14 | C[C@H](CC[C@@H](O[C@@H]1O[C@H](CO)[C@@H](O)[C@H](O)[C@H]1O[C@@H]1O[C@H](CO)[C@@H](O)[C@H](O[C@@H]2O[C@H](CO)[C@@H](O)[C@H](O)[C@H]2O)[C@H]1O)C(C)(C)O)C1CC[C@@]2(C)C3CC=C4C(CC[C@H](O[C@@H]5O[C@H](COC6O[C@H](CO)[C@@H](O)[C@H](O)[C@H]6O)[C@@H](O)[C@H](O)[C@H]5O)C4(C)C)[C@]3(C)[C@H](O)C[C@]12C (stereo partly shown) [Compound 21] | at least as sweet as Rebaudioside A
15 | C[C@H](CC[C@@H](O[C@@H]1O[C@H](CO[C@H]2O[C@H](CO)[C@@H](O)[C@H](O)[C@H]2O)[C@@H](O)[C@H](O)[C@H]1O[C@@H]1O[C@H](CO)[C@@H](O)[C@H](O)[C@H]1O)C(C)(C)O)C1CC[C@@]2(C)C3CC=C4C(CC[C@H](O[C@@H]5O[C@H](CO)[C@@H](O)[C@H](O)[C@H]5O)C4(C)C)[C@]3(C)[C@H](O)C[C@]12C (stereo partly shown) [Compound 3] | at least as sweet as Rebaudioside A
16 | C[C@H](CC[C@@H](O[C@@H]1O[C@H](CO[C@H]2O[C@H](CO)[C@@H](O)[C@H](O)[C@H]2O)[C@@H](O)[C@H](O)[C@H]1O[C@@H]1O[C@H](CO)[C@@H](O)[C@H](O)[C@H]1O)C(C)(C)O)C1CC[C@@]2(C)C3CC=C4C(CC[C@H](O)C4(C)C)[C@]3(C)[C@H](O)C[C@]12C (stereo partly shown) [Compound 15] | at least as sweet as Rebaudioside A
17 | C[C@H](CC[C@@H](O[C@@H]1O[C@H](CO[C@H]2O[C@H](CO)[C@@H](O)[C@H](O)[C@H]2O)[C@@H](O)[C@H](O)[C@H]1O[C@@H]1O[C@H](CO)[C@@H](O)[C@H](O)[C@H]1O)C(C)(C)O)C1CC[C@@]2(C)C3CC=C4C(CC[C@H](O[C@@H]5O[C@H](CO)[C@@H](O)[C@H](O)[C@H]5O)C4(C)C)[C@]3(C)C(=O)C[C@]12C (stereo partly shown) [Compound 11] | at least as sweet as Rebaudioside A
18 | C[C@H](CC[C@@H](O[C@@H]1O[C@H](CO[C@@H]2O[C@H](CO)[C@@H](O)[C@H](O)[C@H]2O)[C@@H](O)[C@H](O)[C@H]1O[C@@H]1O[C@H](CO)[C@@H](O)[C@H](O)[C@H]1O)C(C)(C)O)C1CC[C@@]2(C)C3CC=C4C(CC[C@H](O[C@@H]5O[C@H](CO)[C@@H](O)[C@H](O[C@@H]6C[C@H](CO)[C@@H](O)[C@H](O)[C@H]6O)[C@H]5O)C4(C)C)[C@]3(C)[C@H](O)C[C@]12C (stereo partly shown) [Compound 17] | at least as sweet as Rebaudioside A
19 | CC(CCC(OC1OC(COC2OC(CO)C(O)C(O)C2O)C(O)C(O)C1OC1OC(CO)C(O)C(O)C1O)C(C)(C)O)C1CCC2(C)C3CC=C4C(CCC(OC5OC(COC6OC(CO)C(O)C(O)C6O)C(O)C(O)C5O)C4(C)C)C3(C)C(O)CC12C (stereo not shown) [Compound 12] | at least as sweet as Rebaudioside A
